Drawing on PubChem BioAssay AID248 (DTP/NCI, 2004), this text covers survivor count and T/C for 26 compounds.

The subject of this assay is L1210 leukemia ip in BDF1 mice, survival T/C. Put plainly: NCI In Vivo Anticancer Drug Screen. Data for tumor model L1210 Leukemia (intraperitoneal) in B6D2F1 (BDF1) mice. The settings on record: T/C endpoint: mean survival time, higher T/C = longer survival.
Setting [1] is: dose: 400.0 mg/kg/injection, schedule: Q01DX009 (ip), vehicle: saline with Tween-80.
The mark [2] stands for this setting: dose: 200.0 mg/kg/injection, schedule: Q04DX002 (ip), vehicle: saline.
Setting [3] is: dose: 400.0 mg/kg/injection, schedule: Q04DX002 (ip), vehicle: saline.
[4] abbreviates: dose: 200.0 mg/kg/injection, schedule: Q04DX003 (ip), vehicle: saline with Tween-80.
[5] abbreviates: dose: 400.0 mg/kg/injection, schedule: Q04DX003 (ip), vehicle: saline with Tween-80.
[6] abbreviates: dose: 100.0 mg/kg/injection, schedule: Q04DX003 (ip), vehicle: saline with Tween-80.
The mark [7] stands for this setting: dose: 200.0 mg/kg/injection, schedule: Q01DX001 (ip), vehicle: saline.
[8] abbreviates: dose: 400.0 mg/kg/injection, schedule: Q01DX001 (ip), vehicle: saline.

The list is a part of this screen's results and no random one: it gathers tests that were run many times, whatever their T/C, doses with no T/C, and many T/C values between a quarter and a half above the control. Other doses and runs of a compound stand elsewhere. T/C is the treated group as % of the vehicle group. Some entries give survivors of the animals treated and no T/C: the source holds a T/C of zero for them, seemingly a mark for toxic or unscored doses. Some doses without a T/C left all or most animals alive at the check, yet need not have been tolerated: survival well below the control is almost never listed, so the zero probably covers shortened survival too. Survivors were counted at the toxicity check, usually on the fifth day, unless a day is given; later deaths do not show. Schedule codes are those of the source, taken here to give the interval after Q, in days (D) or hours (H), and the number of doses after X. Some schedule codes hold Z or #, which are not explained here. Some doses were run more than once; the values are given in rising order. For survival time, the PubChem record calls one and a half times the control and up active, and a quarter to a half above the control has no call in these data; cut-offs in other NCI protocols can differ.

For `CC(/C=N/N=C(N(C)C)N(C)C)=N/N=C(N(C)C)N(C)C`, the survivor count is 3 of 6 (dose: 60.0 mg/kg/injection, schedule: Q01DX Z (oral), vehicle: methylcellulose (MC)); 3 of 6 and 5 of 6 (dose: 120.0 mg/kg/injection, schedule: Q01DX Z (oral), vehicle: methylcellulose (MC)); 2 of 6 and 3 of 6 (dose: 240.0 mg/kg/injection, schedule: Q01DX Z (oral), vehicle: methylcellulose (MC)); 0 of 6 (dose: 250.0 mg/kg/injection, schedule: Q01DX Z (ip), vehicle: methylcellulose (MC)); 0 of 6 (dose: 375.0 mg/kg/injection, schedule: Q01DX Z (ip), vehicle: methylcellulose (MC)); 0 of 6 (dose: 480.0 mg/kg/injection, schedule: Q01DX Z (oral), vehicle: methylcellulose (MC)). In addition, where the note is “dose: 500.0 mg/kg/injection, schedule: Q01DX Z (ip), vehicle: methylcellulose (MC)”, the survivor count was 0 of 6.

Turning to `CC(=O)c1cccc([N+](=O)[O-])c1`, for the setting “dose: 400.0 mg/kg/injection, schedule: Q01DX009 (ip), vehicle: other”, the survivor count is recorded as 4 of 6.

With `Cc1cc(N(CCCOS(C)(=O)=O)CCCOS(C)(=O)=O)ccc1C=Nc1ccc(-c2nc(Cc3ccccc3)sc2C)cc1`, the survivor count under setting [1] is given as 1 of 6.

On to `N#Cc1nnn(-c2ccccc2)n1`, for which the survivor count by setting is: (dose: 100.0 mg/kg/injection, schedule: Q01DX009 (ip), vehicle: acetone) 0 of 6; (dose: 200.0 mg/kg/injection, schedule: Q04DX003 (ip), vehicle: acetone) 0 of 6; (dose: 400.0 mg/kg/injection, schedule: Q01DX001 (ip), vehicle: acetone) 0 of 6.

With `O=C1NC2C3CCC(C3)C12` (centres undefined), the survivor count (dose: 100.0 mg/kg/injection, schedule: Q04DX002 (ip), vehicle: saline) was 0 of 3; the survivor count under setting [2] was 0 of 3; the survivor count under setting [3] is reported as 0 of 3.

As to `CCCCS(=O)(=O)F`, the survivor count by setting is: (dose: 200.0 mg/kg/injection, schedule: Q04DX002 (ip), vehicle: saline with Tween-80) 0 of 3; (dose: 400.0 mg/kg/injection, schedule: Q04DX002 (ip), vehicle: saline with Tween-80) 0 of 3.

As for `CCS(=O)(=O)c1ncc2cnccn12`, the survivor count (dose: 400.0 mg/kg/injection, schedule: Q01DX009 (ip), vehicle: water) was 0 of 6 and the survivor count (dose: 400.0 mg/kg/injection, schedule: Q04DX003 (ip), vehicle: water) is 2 of 6.

For the compound `COc1ccccc1N1CCN(CC(O)COc2ccccc2C(C)=O)CC1` (centres undefined), the survivor count under setting [4] is on record as 3 of 6 and the survivor count under setting [5] was 1 of 6.

Consider `CN(CCCN)CCCN`, for which the survivor count under setting [2] is reported as 1 of 3 and the survivor count under setting [3] was 0 of 3.

Take `CCN(CC)CCCCCCNc1ccnc2cc(Cl)ccc12`: the survivor count is listed as 4 of 4 (dose: 100.0 mg/kg/injection, schedule: Q01DX001 (ip), vehicle: carboxymethylcellulose (CMC)); 1 of 4 (dose: 200.0 mg/kg/injection, schedule: Q01DX001 (ip), vehicle: carboxymethylcellulose (CMC)); 0 of 4 (dose: 400.0 mg/kg/injection, schedule: Q01DX001 (ip), vehicle: carboxymethylcellulose (CMC)).

Regarding `CCCN(C)/N=N/c1[nH]ncc1C(N)=O`, the T/C (dose: 44.0 mg/kg/injection, schedule: Q01DX009 (ip), vehicle: saline with Tween-80) was 149 % of control; the T/C (dose: 100.0 mg/kg/injection, schedule: Q01DX009 (ip), vehicle: saline with Tween-80) was 144 % of control; the T/C under setting [6] was 127 % of control; the T/C (dose: 150.0 mg/kg/injection, schedule: Q01DX009 (ip), vehicle: saline with Tween-80) was 135 % of control. Also, under setting [1], the survivor count was 1 of 6.

Turning to `CC(C)=CCN(CC=C(C)C)CCC(O)(Cc1ccccc1)c1ccccc1` (centres undefined), the survivor count (dose: 400.0 mg/kg/injection, schedule: Q04DX003 (ip), vehicle: Klucel (hydroxypropylcellulose) (HPC)) is on record as 0 of 6.

As for `CCN1/C(=C\c2ccc3cc(C)ccc3[n+]2CC)[Se]c2ccccc21`, the survivor count runs as follows: (dose: 9.5 mg/kg/injection, schedule: Q01DX001 (ip), vehicle: other) 0 of 6; (dose: 19.0 mg/kg/injection, schedule: Q01DX001 (ip), vehicle: other) 0 of 6; (dose: 38.0 mg/kg/injection, schedule: Q01DX001 (ip), vehicle: other) 0 of 6.

Take `CN=C(N)C(C)SS(=O)(=O)O` (centres undefined): the survivor count by setting is: (dose: 100.0 mg/kg/injection, schedule: Q04DX002 (ip), vehicle: Klucel (hydroxypropylcellulose) (HPC)) 3 of 3; (dose: 400.0 mg/kg/injection, schedule: Q04DX002 (ip), vehicle: Klucel (hydroxypropylcellulose) (HPC)) 0 of 3.

Regarding `Cc1cc(SC#N)ccc1O`, the survivor count reads like this: (dose: 100.0 mg/kg/injection, schedule: Q04DX002 (ip), vehicle: other) 0 of 3; (dose: 200.0 mg/kg/injection, schedule: Q04DX002 (ip), vehicle: other) 0 of 3; (dose: 400.0 mg/kg/injection, schedule: Q04DX002 (ip), vehicle: other) 0 of 3.

With `CC1(C)Cc2cccc(C(=O)CCCN3CCCCC3)c2O1`, the survivor count by setting is: under setting [7], 0 of 6; under setting [8], 0 of 6.

For the compound `O=C1NC2(C=CC(Br)CC2)C(=O)C12CCCCC2` (centres undefined) (tested in a mixture with another compound), the survivor count (dose: 75.0 mg/kg/injection, schedule: Q01DX001 (ip), vehicle: saline) is reported as 6 of 6 and the survivor count (dose: 300.0 mg/kg/injection, schedule: Q01DX001 (ip), vehicle: saline) is given as 6 of 6.

As to `N#[N+]c1ccc(Br)cc1-c1nc(N)nc(N)n1`, the survivor count (dose: 75.0 mg/kg/injection, schedule: Q01DX009 (ip), vehicle: saline) was 5 of 6; the survivor count (dose: 100.0 mg/kg/injection, schedule: Q04DX003 (ip), vehicle: saline) was 5 of 6; the survivor count (dose: 115.0 mg/kg/injection, schedule: Q01DX009 (ip), vehicle: saline) is listed as 0 of 6; the survivor count under setting [7] is recorded as 0 of 6; the survivor count under setting [8] is given as 0 of 6.

In the case of `CCc1ccc(NC(=O)c2c(Br)c(Br)c(Br)c(Br)c2C(=O)O)cc1`, the survivor count (dose: 200.0 mg/kg/injection, schedule: Q01DX009 (ip), vehicle: Klucel (hydroxypropylcellulose) (HPC)) is given as 2 of 6 and the survivor count (dose: 400.0 mg/kg/injection, schedule: Q01DX009 (ip), vehicle: Klucel (hydroxypropylcellulose) (HPC)) is listed as 0 of 6.

Consider `CCN(CC)CCNCC(Cc1ccccc1)c1ccccc1` (centres undefined), for which the survivor count under setting [3] is given as 0 of 3.

Consider `CN1C(=O)C2(C)CCC1c1ccccc12` (centres undefined), for which the survivor count (dose: 400.0 mg/kg/injection, schedule: Q01DX001 (ip), vehicle: other) is recorded as 6 of 6.

On to `O=C(Nc1cccc(C2=NCCN2)c1)c1ccc(C(=O)Nc2cccc(C3=NCCN3)c2)c(Cl)c1`, for which the survivor count by setting is: (dose: 12.0 mg/kg/injection, schedule: Q01DX Z (ip), vehicle: water) 0 of 6; (dose: 25.0 mg/kg/injection, schedule: Q01DX Z (ip), vehicle: water) 0 of 6; (dose: 50.0 mg/kg/injection, schedule: Q01DX Z (ip), vehicle: water) 0 of 6; (dose: 100.0 mg/kg/injection, schedule: Q01DX Z (ip), vehicle: water) 0 of 6.

In the case of `NC(CO)C(O)c1ccc(N=Nc2ccc(O)cc2)cc1` (centres undefined), the survivor count reads like this: under setting [4], 3 of 6; under setting [5], 0 of 6.

Take `Cc1ccc(S(=O)(=O)N=Nc2c(O)[nH]c3cc(O)c(C(=O)O)cc23)cc1`: the survivor count (dose: 100.0 mg/kg/injection, schedule: Q04DX003 (ip), vehicle: Klucel (hydroxypropylcellulose) (HPC)) is on record as 3 of 3.

On to `O=C(O)c1ccc(NC(=O)c2ccc(C(=O)Nc3ccc(C(=O)O)cc3)cc2)cc1`, for which the survivor count (dose: 30.0 mg/kg/injection, schedule: Q01DX Z (ip), vehicle: methylcellulose (MC)) was 4 of 6.

Regarding `CC(=O)c1cc(N)ccc1SC#N`, the survivor count runs as follows: under setting [6], 0 of 6; under setting [4], 0 of 6; under setting [5], 0 of 6.
